Measured values as given in PubChem BioAssay AID2284366 (EPA ToxCast).
The inconclusive results got no clear call from the source; some entries with a clear call stand among them for comparison. A potency beside an inconclusive call is a rough fit, not a confirmed value. Calls of active or inactive are those of the source. The calls were made as follows: active = hit-call score of the fitted dose curve at least 0.9, where 1 is the maximum; inconclusive = response in the unintended direction; inactive = score below 0.9.

What follows are compounds tested on zebrafish Peroxisome Proliferator-activated Receptor gamma (PPARg), gene 557037 (assay: ATG_zfPPARg_EcoTox2: Attagene TRANS-FACTORIAL EcoTox-2 HepG2 Assay for zebrafish Peroxisome Proliferator-activated Receptor gamma (PPARg)).
Protocol: ATG_EcoTox2 is a cell-based, multiplexed assay created by modifying the existing Attagene TRANS-FACTORIAL system to include a panel of nuclear receptors from some or all the following species: human (Homo sapiens), african clawed frog (Xenopus laevis), rainbow trout (Oncorhynchus mykiss), japanese medaka (Oryzias latipes), and zebrafish (Danio rerio). The ECOTOX2-FACTORIAL format uses HepG2, a human liver cell line, with measurements taken at 24 hours after chemical dosing in a 24-well plate. ATG_zfPPARg_EcoTox2 is one of 29 assay components calculated in the ATG_EcoTox2 assay. It is designed to make measurements of mRNA induction, a form of inducible reporter, as detected with fluorescence intensity signals by Reverse transcription polymerase chain reaction (RT-PCR) and Capillary electrophoresis technology.The assay endpoint ATG_zfPPARg_EcoTox2 was analyzed in the positive analysis fitting direction relative to DMSO as the negative control and baseline of activity. Using a type of inducible reporter, measures of mRNA for gain-of-signal activity can be used to understand the reporter gene at the transcription factor-level as they relate to the gene PPARg. Furthermore, this assay endpoint can be referred to as a primary readout, because this assay has produced multiple assay endpoints where this one serves a reporter gene function. To generalize the intended target to other relatable targets, this assay endpoint is annotated to the nuclear receptor intended target family, where the subfamily is non-steroidal.
Human liver HepG2 cells are transiently transfected with multiple reporter transcription units (MRTUs) in 6-well plates using FuGene 6 reagent (Roche; 3 ml FuGene/1 mg DNA). The MRTU constructs are regulated by a cis-regulating element (promoter). Each RTU expresses a GAL4-UAS that regulates the transcription of a nearby target reporter gene sequence. A major difference between the CIS and TRANS system is that in CIS activities of endogenous TFs are measured, whereas the TRANS assay evaluates changes in activities of exogenous, chimeric NR-Gal4 proteins. […] At the end of 24 hour incubation, total RNA was isolated using TriZol reagent (Invitrogen). The isolated RNA is then reverse-transcribed using oligo(dT) primer and Mo-MLV reverse transcriptase (Invitrogen) with DNAse I (Ambion) treatment for 30 min. The one-tenth of the produced cDNA was amplified by PCR using Taq DNA polymerase (Invitrogen) and two reporter sequence-specific primers. […] The fragments were purified using Qiaquick PCR columns (Qiagen), analyzed on an ABI 3130xL genetic analyzer (Applied Biosystems) with peak positions identified by using a set of X-rhodamine (ROX)-labeled MapMarker1000 molecular weight standards (BioVentures). […]

With `CC(C)(Oc1ccc(C2CC2(Cl)Cl)cc1)C(=O)O` (centres undefined) as the compound, how does the AC50 read?
The AC50 was inconclusive: 23.6 µM.

How did the AC50 turn out when `CC(C)(Oc1ccc(CCNC(=O)c2ccc(Cl)cc2)cc1)C(=O)O` was run?
Its AC50 is inconclusive: 26.9 µM.

With `Cc1ccc(C)c(OCCCC(C)(C)C(=O)O)c1` as the compound, how does the outcome read?
The outcome was “inactive”.

`CC(c1cc2ccccc2s1)N(O)C(N)=O` (centres undefined) was tested. Which AC50 did it give?
Its AC50 is inconclusive: 50 µM.
